According to US8202902B2, “Bivalent SMAC mimetics and the uses thereof” (The Regents of the University of Michigan, priority 2006, dated 2012):
At least one structure is not confirmed: it was looked up by name or label, or the drawing left a doubt. Non-standard residues stand in square brackets, D forms with d. Residues, ends and D or L forms follow the SMILES beside them. *: point of attachment. X1 = C[C@H](N)C(=O)N[C@@H](CCCCNC(=O)CCCCC(=O)*)C(=O)N1CCC[C@H]1C(=O)N[C@@H](Cc1ccccc1)C(N)=O; 5FAM = O=C1OC2(c3ccc(O)cc3Oc3cc(O)ccc32)c2ccc(C(=O)*)cc21

Sequences of proteins named here, by UniProt entry; tags and fusion partners are left off. Residues count along the entry.
UniProt P98170, 120-356: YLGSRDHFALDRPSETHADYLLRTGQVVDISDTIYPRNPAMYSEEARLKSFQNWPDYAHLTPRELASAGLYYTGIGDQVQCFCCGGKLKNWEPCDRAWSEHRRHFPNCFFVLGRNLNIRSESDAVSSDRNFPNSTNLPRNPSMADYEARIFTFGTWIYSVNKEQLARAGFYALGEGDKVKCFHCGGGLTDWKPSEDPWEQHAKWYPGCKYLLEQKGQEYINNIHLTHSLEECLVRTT

Target: T1, human XIAP protein (residues 120-356) (Homo sapiens, UniProt P98170)
T1 construct: human XIAP protein (residues 120-356) (10 nM)
Experiment: Fluorescence-polarization-based binding assay to XIAP protein (Smac2-F tracer)
Procedure: The polarization values were measured after 2 hours incubation, using the Ultra plate reader. […] Curve fitting is performed using GraphPad Prism® software.

Q: How did the Kd turn out when `C[C@H](N)C(=O)N[C@@H](CCCCNC(=O)CCCCC(=O)NCCCC[C@H](NC(=O)[C@H](C)N)C(=O)N1CCC[C@H]1C(=O)N[C@@H](Cc1ccccc1)C(=O)N[C@H](CCCCNC(=O)c1ccc2c(c1)C(=O)OC21c2ccc(O)cc2Oc2cc(O)ccc21)C(N)=O)C(=O)N1CCC[C@H]1C(=O)N[C@@H](Cc1ccccc1)C(N)=O` [Smac2-F, reference compound] (H-AK(X1)PF[dK](5FAM)-NH2) was run?
A: 1.2 nM
